# Drug screen on melanoma cell lines: cell count

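Human melanoma cells were exposed to a pair of drugs for 72 h in 1,536-well plates and read by automated microscopy after fixing and staining. Each value is the count of nuclei relative to DMSO-treated wells, in %, so that 100 equals the control. Every drug was used at one fixed concentration, the higher of two screened. These are primary screening values without error estimates.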 This is part of the screen, not chosen by result.

Every entry is a combination with erlotinib at 4 µM: C#Cc1cccc(Nc2ncnc3cc(OCCOC)c(OCCOC)cc23)c1

Drugs:
XAV939, 10 µM: Oc1nc(-c2ccc(C(F)(F)F)cc2)nc2c1CSCC2
PD173074, 0.5 µM: CCN(CC)CCCCNc1ncc2cc(-c3cc(OC)cc(OC)c3)c(NC(=O)NC(C)(C)C)nc2n1
enzastaurin, 4 µM: Cn1cc(C2=C(c3cn(C4CCN(Cc5ccccn5)CC4)c4ccccc34)C(=O)NC2=O)c2ccccc21
nilotinib, 1 µM: Cc1cn(-c2cc(NC(=O)c3ccc(C)c(Nc4nccc(-c5cccnc5)n4)c3)cc(C(F)(F)F)c2)cn1
pazopanib, 2 µM: Cc1ccc(Nc2nccc(N(C)c3ccc4c(C)n(C)nc4c3)n2)cc1S(N)(=O)=O
BMS-536924, 1 µM: Cc1cc(N2CCOCC2)cc2[nH]c(-c3c(NC[C@@H](O)c4cccc(Cl)c4)cc[nH]c3=O)nc12
GW9662, 10 µM: O=C(Nc1ccccc1)c1cc([N+](=O)[O-])ccc1Cl
A-769662, 10 µM: N#Cc1c(O)c2c(-c3ccc(-c4ccccc4O)cc3)csc2[nH]c1=O
AZD7762, 0.1 µM: NC(=O)Nc1cc(-c2cccc(F)c2)sc1C(=O)N[C@H]1CCCNC1
BI-D1870, 1 µM: CC(C)CCN1c2nc(Nc3cc(F)c(O)c(F)c3)ncc2N(C)C(=O)C1C (configuration not stated)
nutlin-3, 0.5 µM: COc1ccc(C2=N[C@@H](c3ccc(Cl)cc3)[C@@H](c3ccc(Cl)cc3)N2C(=O)N2CCNC(=O)C2)c(OC(C)C)c1
dovitinib, 0.5 µM: CN1CCN(c2ccc3nc(-c4c(N)c5c(F)cccc5[nH]c4=O)[nH]c3c2)CC1
palbociclib, 0.2 µM: CC(=O)c1c(C)c2cnc(Nc3ccc(N4CCNCC4)cn3)nc2n(C2CCCC2)c1=O
lapatinib, 4 µM: CS(=O)(=O)CCNCc1ccc(-c2ccc3ncnc(Nc4ccc(OCc5cccc(F)c5)c(Cl)c4)c3c2)o1
NVP-BEZ235, 0.02 µM: Cn1c(=O)n(-c2ccc(C(C)(C)C#N)cc2)c2c3cc(-c4cnc5ccccc5c4)ccc3ncc21
AS-252424, 5 µM: O=C1NC(=O)/C(=C/c2ccc(-c3ccc(F)cc3O)o2)S1
TCS401, 8.33 µM: O=C(O)C(=O)Nc1sc2c(c1C(=O)O)CCNC2
lestaurtinib, 0.02 µM: C[C@]12O[C@H](C[C@]1(O)CO)n1c3ccccc3c3c4c(c5c6ccccc6n2c5c31)CNC4=O
FH535, 5 µM: Cc1cc([N+](=O)[O-])ccc1NS(=O)(=O)c1cc(Cl)ccc1Cl
sunitinib, 2 µM: CCN(CC)CCNC(=O)c1c(C)[nH]c(/C=C2\C(=O)Nc3ccc(F)cc32)c1C
CX-4945, 2 µM: O=C(O)c1ccc2c(c1)nc(Nc1cccc(Cl)c1)c1ccncc12
vorinostat, 0.4 µM: O=C(CCCCCCC(=O)Nc1ccccc1)NO
GW441756, 2 µM: Cn1cc(/C=C2\C(=O)Nc3cccnc32)c2ccccc21
pioglitazone, 10 µM: CCc1ccc(CCOc2ccc(CC3SC(=O)NC3=O)cc2)nc1 (configuration not stated)
T0901317, 7 µM: O=S(=O)(c1ccccc1)N(CC(F)(F)F)c1ccc(C(O)(C(F)(F)F)C(F)(F)F)cc1
ABT-263, 2 µM: CC1(C)CCC(c2ccc(Cl)cc2)=C(CN2CCN(c3ccc(C(=O)NS(=O)(=O)c4ccc(N[C@H](CCN5CCOCC5)CSc5ccccc5)c(S(=O)(=O)C(F)(F)F)c4)cc3)CC2)C1
L-779450, 1 µM: Oc1cc(-c2nc(-c3ccccc3)[nH]c2-c2ccncc2)ccc1Cl
U73122, 2 µM: COc1ccc2c(c1)CCC1C2CCC2(C)C(NCCCCCCN3C(=O)C=CC3=O)CCC12 (configuration not stated)
sorafenib, 2 µM: CNC(=O)c1cc(Oc2ccc(NC(=O)Nc3ccc(Cl)c(C(F)(F)F)c3)cc2)ccn1
PF-562271, 0.4 µM: CN(c1ncccc1CNc1nc(Nc2ccc3c(c2)CC(=O)N3)ncc1C(F)(F)F)S(C)(=O)=O
OSU-03012, 5 µM: NCC(=O)Nc1ccc(-n2nc(C(F)(F)F)cc2-c2ccc3c(ccc4ccccc43)c2)cc1
KU-0063794, 0.1 µM: COc1ccc(-c2ccc3c(N4CCOCC4)nc(N4C[C@@H](C)O[C@@H](C)C4)nc3n2)cc1CO
JZL184, 5 µM: O=C(Oc1ccc([N+](=O)[O-])cc1)N1CCC(C(O)(c2ccc3c(c2)OCO3)c2ccc3c(c2)OCO3)CC1
fludarabine, 1 µM: Nc1nc(F)nc2c1ncn2[C@@H]1O[C@H](CO)[C@@H](O)[C@@H]1O
FK866, 0.05 µM: O=C(/C=C/c1cccnc1)NCCCCC1CCN(C(=O)c2ccccc2)CC1
everolimus, 0.1 µM: CO[C@H]1C[C@@H]2CC[C@@H](C)[C@@](O)(O2)C(=O)C(=O)N2CCCC[C@H]2C(=O)O[C@H]([C@H](C)C[C@@H]2CC[C@@H](OCCO)[C@H](OC)C2)CC(=O)[C@H](C)/C=C(\C)[C@@H](O)[C@@H](OC)C(=O)[C@H](C)C[C@H](C)/C=C/C=C/C=C/1C

Second drug,WM3619,COLO 792,C32,COLO 800,WM451Lu,COLO 829
vorinostat,69.2,55.4,89.8,66.1,83.7,72.3
pioglitazone,79.0,76.6,93.7,70.7,91.4,88.9
GW441756,66.0,71.1,112,53.0,110,84.1
PF-562271,71.9,42.9,71.4,81.8,47.9,68.0
ABT-263,75.8,3.8,80.8,17.5,93.8,67.2
OSU-03012,66.0,44.1,95.4,55.9,101,47.5
fludarabine,84.0,43.2,81.3,64.9,87.0,71.9
AZD7762,25.2,30.6,56.7,67.8,75.9,67.8
CX-4945,50.4,24.3,70.8,54.8,56.8,37.0
lestaurtinib,81.1,44.0,82.8,55.0,61.8,71.4
dovitinib,52.9,39.8,75.2,54.1,79.7,49.8
palbociclib,54.4,37.8,84.8,61.6,67.5,63.4
lapatinib,83.5,77.9,73.4,42.2,102,83.5
A-769662,89.6,46.7,105,79.0,77.4,77.5
enzastaurin,93.4,67.3,86.6,60.9,100,66.8
NVP-BEZ235,75.5,38.4,90.7,55.4,69.7,74.5
KU-0063794,99.2,76.9,93.7,69.1,102,141
BMS-536924,73.1,22.3,82.5,41.3,87.0,72.1
PD173074,88.4,45.1,110,72.5,67.2,83.2
sunitinib,75.1,31.2,78.5,54.8,49.6,83.5
BI-D1870,74.4,43.9,100,45.5,73.5,95.8
AS-252424,76.9,59.8,101,47.1,85.5,66.1
FK866,72.0,32.5,98.0,31.7,84.8,58.5
L-779450,56.6,58.7,67.4,88.9,48.1,62.6
GW9662,48.1,66.2,102,83.7,77.1,55.1
everolimus,68.7,31.0,72.6,56.3,66.8,77.2
nilotinib,71.0,53.0,87.3,58.6,82.3,87.6
U73122,61.9,68.5,68.8,54.1,94.4,64.0
XAV939,74.7,49.6,99.5,78.8,95.3,99.8
T0901317,85.6,50.2,88.4,64.7,83.8,81.3
TCS401,67.6,60.1,93.4,101,83.8,80.9
pazopanib,72.0,51.9,83.0,47.4,74.5,58.1
sorafenib,94.6,68.0,113,112,81.2,75.1
JZL184,106,66.4,87.9,83.3,80.0,89.7
nutlin-3,78.9,43.6,71.3,63.9,74.4,76.1
FH535,70.6,36.6,101,68.8,91.8,91.5

Some entries from above, unchanged:

{"second drug": "pioglitazone", "WM3619": 79.0, "COLO 792": 76.6, "C32": 93.7, "COLO 800": 70.7, "WM451Lu": 91.4, "COLO 829": 88.9}
{"second drug": "ABT-263", "WM3619": 75.8, "COLO 792": 3.8, "C32": 80.8, "COLO 800": 17.5, "WM451Lu": 93.8, "COLO 829": 67.2}
{"second drug": "sorafenib", "WM3619": 94.6, "COLO 792": 68.0, "C32": 113, "COLO 800": 112, "WM451Lu": 81.2, "COLO 829": 75.1}
{"second drug": "TCS401", "WM3619": 67.6, "COLO 792": 60.1, "C32": 93.4, "COLO 800": 101, "WM451Lu": 83.8, "COLO 829": 80.9}

Values as published with doi:10.1371/journal.pone.0140310, rounded.